No constants are given. Whether binding was seen depends on the method and setting. Some binding calls cover weakened binding; strength is not graded here.
Legend:
[1] = molecular target: V5-tagged peptide comprising the entire constant region of human IgE (human) (UniProt P01854); assay: Western blot of in vitro translated V5-tagged peptide
[2] = molecular target: V5-tagged peptide comprising the CH2-CH3 region of human IgE (human) (UniProt P01854); assay: as above
[3] = molecular target: V5-tagged peptide comprising the entire constant region of human IgE (human) (UniProt P01854); assay: Western blot of in vitro translated V5-tagged IgE Fc peptides (Example 12 B) [panel anti-IgE 5I]
[4] = molecular target: V5-tagged peptide comprising the CH2-CH3 region of human IgE (human) (UniProt P01854); assay: as above
[5] = molecular target: V5-tagged peptide comprising the entire constant region of human IgE (human) (UniProt P01854); assay: Western blot of in vitro translated V5-tagged IgE Fc peptides (Example 12 B) [panel anti-IgE 2C]

Chains of the proteins cited; added tags and fusions are not shown. Lines headed by an entry give the natural chain unless they say otherwise; changes in a name come on top. A line that says so, or that is headed by a name, gives the form on record, which may keep a tag or linker. Residues count along the entry.
V5-tagged peptide comprising the CH2-CH3 region of human IgE (P01854, residues 104-318): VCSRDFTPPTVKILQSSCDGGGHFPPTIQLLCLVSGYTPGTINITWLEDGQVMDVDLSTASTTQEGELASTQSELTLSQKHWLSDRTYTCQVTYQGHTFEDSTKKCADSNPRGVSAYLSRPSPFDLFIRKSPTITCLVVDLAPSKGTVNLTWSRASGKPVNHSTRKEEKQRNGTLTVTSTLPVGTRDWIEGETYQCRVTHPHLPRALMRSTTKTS
V5-tagged peptide comprising the entire constant region of human IgE (P01854, form named): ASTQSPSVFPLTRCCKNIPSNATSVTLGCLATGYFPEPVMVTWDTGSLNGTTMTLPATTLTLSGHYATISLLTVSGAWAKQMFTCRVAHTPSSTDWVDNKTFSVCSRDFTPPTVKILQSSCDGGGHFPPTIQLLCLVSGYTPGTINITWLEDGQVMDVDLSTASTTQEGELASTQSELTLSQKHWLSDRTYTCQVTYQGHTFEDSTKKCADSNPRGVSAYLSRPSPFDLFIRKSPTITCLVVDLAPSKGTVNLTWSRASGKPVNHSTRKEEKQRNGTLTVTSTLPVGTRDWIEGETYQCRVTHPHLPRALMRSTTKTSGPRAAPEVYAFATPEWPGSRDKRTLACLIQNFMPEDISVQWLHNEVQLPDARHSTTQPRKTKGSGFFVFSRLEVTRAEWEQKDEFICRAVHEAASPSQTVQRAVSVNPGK

Measured: binding

B1: Anti-IgE CL-5I (antibody, V domains shown)
VH: QVQLVQSGAEVMKPGSSVKVSCKASGYTFSMYWLEWVRQAPGHGLEWMGEIDPGTFETNYNEKFKARVTFTADTSTSTAYMELSSLRSEDTAVYYCARFSHFSGSNYDYFDYWGQGTLVTVSS
VL: EIVMTQSPATLSVSPGERATLSCRASQSIGTNIHWYQQKPGQAPRLLIYYASESISGIPARFSGSGSGTEFTLTISSLQSEDFAVYYCQQSWSWPTTFGGGTKVEIKT
not listed: [5]
binds: all other assays above

B2: Anti-IgE CL-2C (antibody, V domains shown)
VH: QVQLVQSGAEVMKPGSSVKVSCKASGYTFSWYWLEWVRQAPGHGLEWMGEIDPGTFTTNYNEKFKARVTFTADTSTSTAYMELSSLRSEDTAVYYCARFSHFSGSNYDYFDYWGQGTLVTVSS
VL: EIVMTQSPATLSVSPGERATLSCRASQSIGTNIHWYQQKPGQAPRLLIYYASESISGIPARFSGSGSGTEFTLTISSLQSEDFAVYYCQQSWSWPTTFGGGTKVEIKT
binds: [1] | [2] | [5]

— US20050169909A1
